The supplement of paper PMC10849652
Some of the results follow.

By UniProt entry, the sequences of proteins in these tests, tags left out. Where a name states a change or a piece, a line headed by the entry shows the natural chain unless it says otherwise.
UniProt P28330: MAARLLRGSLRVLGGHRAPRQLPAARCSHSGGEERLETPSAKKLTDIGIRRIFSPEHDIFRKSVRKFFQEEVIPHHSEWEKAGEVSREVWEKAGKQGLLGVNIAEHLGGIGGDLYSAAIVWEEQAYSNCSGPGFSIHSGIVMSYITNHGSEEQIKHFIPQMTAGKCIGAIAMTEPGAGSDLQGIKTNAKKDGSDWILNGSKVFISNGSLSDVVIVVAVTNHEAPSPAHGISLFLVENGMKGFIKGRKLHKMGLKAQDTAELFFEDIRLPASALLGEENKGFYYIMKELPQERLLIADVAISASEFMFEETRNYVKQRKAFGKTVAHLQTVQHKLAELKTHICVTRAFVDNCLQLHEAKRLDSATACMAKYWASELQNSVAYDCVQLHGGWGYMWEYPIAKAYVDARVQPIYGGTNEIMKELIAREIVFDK
UniProt Q15067: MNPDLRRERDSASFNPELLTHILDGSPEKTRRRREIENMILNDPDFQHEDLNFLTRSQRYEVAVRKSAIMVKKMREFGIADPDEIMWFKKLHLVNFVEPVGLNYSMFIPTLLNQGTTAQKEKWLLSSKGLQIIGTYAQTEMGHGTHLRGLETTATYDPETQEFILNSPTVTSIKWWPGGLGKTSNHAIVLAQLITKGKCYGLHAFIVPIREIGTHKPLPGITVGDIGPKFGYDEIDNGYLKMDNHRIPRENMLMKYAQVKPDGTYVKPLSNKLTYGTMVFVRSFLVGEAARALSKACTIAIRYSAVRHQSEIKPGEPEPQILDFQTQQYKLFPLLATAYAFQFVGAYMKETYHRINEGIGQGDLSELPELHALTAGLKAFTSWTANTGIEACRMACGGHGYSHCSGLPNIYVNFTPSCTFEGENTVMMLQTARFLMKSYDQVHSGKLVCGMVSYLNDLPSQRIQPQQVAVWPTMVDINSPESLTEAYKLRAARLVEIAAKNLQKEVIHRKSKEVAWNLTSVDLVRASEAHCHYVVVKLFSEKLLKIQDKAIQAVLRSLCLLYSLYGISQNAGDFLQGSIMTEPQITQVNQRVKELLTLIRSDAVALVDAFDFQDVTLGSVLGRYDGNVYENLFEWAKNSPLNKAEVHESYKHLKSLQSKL
UniProt Q96QU6: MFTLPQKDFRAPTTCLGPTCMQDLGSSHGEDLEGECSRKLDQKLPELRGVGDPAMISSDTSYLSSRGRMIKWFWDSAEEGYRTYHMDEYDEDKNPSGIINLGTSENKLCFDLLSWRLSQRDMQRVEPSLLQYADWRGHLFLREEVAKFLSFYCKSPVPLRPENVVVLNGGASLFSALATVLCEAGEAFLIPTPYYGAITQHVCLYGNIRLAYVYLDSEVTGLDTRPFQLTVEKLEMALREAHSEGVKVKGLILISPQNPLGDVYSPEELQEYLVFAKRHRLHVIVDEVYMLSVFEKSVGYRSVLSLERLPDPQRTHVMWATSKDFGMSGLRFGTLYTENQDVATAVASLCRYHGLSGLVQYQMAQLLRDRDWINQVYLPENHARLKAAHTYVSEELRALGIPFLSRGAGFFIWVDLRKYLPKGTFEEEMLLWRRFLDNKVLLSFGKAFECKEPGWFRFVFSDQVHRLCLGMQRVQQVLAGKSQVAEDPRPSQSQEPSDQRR
UniProt P53396: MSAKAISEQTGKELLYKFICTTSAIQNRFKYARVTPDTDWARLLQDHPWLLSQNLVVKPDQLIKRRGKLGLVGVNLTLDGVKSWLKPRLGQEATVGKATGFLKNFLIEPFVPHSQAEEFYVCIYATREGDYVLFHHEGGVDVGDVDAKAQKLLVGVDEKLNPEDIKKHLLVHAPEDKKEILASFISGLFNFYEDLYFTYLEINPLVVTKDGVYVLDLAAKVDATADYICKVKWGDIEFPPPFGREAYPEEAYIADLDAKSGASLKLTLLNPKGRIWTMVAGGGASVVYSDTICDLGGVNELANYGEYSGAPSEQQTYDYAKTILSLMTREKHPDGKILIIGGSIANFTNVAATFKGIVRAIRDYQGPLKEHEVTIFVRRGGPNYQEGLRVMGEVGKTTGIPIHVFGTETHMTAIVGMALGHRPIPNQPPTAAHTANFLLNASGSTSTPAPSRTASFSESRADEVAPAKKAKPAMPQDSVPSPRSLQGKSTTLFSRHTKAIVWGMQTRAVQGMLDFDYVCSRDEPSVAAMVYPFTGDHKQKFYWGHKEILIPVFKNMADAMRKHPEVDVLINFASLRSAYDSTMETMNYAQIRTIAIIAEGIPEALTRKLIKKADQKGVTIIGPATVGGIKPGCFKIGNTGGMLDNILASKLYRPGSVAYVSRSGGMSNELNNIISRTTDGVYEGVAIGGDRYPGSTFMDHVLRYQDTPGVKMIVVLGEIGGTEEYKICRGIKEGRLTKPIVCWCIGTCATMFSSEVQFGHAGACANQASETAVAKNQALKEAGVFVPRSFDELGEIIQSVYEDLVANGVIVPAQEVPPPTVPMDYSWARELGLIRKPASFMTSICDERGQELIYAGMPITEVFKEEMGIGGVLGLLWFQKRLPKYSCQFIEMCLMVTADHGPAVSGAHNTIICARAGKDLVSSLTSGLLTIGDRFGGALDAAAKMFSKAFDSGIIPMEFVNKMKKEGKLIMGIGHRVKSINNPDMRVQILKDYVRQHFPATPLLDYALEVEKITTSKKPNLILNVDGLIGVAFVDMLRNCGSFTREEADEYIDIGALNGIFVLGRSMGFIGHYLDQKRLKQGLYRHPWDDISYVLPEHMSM
UniProt Q8N6N7: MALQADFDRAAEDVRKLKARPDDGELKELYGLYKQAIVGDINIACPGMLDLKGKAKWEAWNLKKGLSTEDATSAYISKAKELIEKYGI
UniProt P78363: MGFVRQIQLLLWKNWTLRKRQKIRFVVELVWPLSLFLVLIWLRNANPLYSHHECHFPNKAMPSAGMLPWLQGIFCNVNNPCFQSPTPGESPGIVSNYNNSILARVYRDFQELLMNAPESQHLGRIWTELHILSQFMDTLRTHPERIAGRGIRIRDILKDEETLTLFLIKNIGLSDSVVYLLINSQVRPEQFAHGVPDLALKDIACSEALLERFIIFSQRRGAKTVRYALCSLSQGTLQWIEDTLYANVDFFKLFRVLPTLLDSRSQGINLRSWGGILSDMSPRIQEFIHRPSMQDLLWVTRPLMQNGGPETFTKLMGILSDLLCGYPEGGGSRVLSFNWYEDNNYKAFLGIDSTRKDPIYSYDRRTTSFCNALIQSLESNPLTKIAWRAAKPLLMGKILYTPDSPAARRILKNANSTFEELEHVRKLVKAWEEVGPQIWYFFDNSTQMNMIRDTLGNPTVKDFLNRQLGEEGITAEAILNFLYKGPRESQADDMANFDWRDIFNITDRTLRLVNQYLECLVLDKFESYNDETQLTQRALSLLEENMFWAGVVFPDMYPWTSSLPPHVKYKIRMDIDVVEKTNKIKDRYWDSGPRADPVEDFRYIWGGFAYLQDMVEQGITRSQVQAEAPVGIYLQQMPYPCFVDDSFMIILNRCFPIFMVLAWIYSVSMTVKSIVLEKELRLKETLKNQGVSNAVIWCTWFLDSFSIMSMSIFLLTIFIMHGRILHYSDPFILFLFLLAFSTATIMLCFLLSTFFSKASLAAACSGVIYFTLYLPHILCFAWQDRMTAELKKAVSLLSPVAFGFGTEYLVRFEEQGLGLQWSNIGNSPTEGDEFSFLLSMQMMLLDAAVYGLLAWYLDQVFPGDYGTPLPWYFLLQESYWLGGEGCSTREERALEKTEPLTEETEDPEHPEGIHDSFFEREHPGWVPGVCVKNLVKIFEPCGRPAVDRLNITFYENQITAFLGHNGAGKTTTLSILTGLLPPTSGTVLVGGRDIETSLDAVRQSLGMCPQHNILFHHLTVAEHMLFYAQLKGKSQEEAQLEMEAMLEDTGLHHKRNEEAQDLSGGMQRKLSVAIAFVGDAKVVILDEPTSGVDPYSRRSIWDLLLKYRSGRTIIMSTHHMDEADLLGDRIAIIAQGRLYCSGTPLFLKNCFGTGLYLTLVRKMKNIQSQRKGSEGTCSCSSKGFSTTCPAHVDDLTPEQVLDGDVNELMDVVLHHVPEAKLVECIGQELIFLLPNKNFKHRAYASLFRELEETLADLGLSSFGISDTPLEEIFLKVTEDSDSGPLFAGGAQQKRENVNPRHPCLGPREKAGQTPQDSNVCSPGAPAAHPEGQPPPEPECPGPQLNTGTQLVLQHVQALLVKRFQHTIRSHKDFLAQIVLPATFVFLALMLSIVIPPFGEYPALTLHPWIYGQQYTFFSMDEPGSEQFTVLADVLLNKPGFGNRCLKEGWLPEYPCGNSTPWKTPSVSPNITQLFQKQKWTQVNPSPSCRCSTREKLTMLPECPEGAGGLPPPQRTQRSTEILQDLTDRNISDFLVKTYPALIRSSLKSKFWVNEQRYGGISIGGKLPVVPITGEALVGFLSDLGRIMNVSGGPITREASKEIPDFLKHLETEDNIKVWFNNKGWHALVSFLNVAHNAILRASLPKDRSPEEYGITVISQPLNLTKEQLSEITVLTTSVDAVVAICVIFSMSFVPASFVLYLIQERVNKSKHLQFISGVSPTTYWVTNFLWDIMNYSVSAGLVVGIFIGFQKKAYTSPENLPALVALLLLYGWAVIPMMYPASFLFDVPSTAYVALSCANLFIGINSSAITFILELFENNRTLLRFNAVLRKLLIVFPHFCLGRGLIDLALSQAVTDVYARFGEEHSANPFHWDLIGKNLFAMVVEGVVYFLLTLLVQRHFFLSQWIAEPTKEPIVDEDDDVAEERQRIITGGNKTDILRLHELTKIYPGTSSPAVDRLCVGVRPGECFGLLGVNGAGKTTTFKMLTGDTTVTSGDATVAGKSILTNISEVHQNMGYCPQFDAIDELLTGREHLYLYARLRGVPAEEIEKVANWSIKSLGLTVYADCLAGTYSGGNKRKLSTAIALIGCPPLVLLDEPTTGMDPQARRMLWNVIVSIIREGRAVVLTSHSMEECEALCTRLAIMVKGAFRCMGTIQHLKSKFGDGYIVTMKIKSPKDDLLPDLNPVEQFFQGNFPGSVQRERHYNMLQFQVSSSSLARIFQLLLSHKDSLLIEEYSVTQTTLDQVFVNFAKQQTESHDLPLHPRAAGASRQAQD
UniProt O15254: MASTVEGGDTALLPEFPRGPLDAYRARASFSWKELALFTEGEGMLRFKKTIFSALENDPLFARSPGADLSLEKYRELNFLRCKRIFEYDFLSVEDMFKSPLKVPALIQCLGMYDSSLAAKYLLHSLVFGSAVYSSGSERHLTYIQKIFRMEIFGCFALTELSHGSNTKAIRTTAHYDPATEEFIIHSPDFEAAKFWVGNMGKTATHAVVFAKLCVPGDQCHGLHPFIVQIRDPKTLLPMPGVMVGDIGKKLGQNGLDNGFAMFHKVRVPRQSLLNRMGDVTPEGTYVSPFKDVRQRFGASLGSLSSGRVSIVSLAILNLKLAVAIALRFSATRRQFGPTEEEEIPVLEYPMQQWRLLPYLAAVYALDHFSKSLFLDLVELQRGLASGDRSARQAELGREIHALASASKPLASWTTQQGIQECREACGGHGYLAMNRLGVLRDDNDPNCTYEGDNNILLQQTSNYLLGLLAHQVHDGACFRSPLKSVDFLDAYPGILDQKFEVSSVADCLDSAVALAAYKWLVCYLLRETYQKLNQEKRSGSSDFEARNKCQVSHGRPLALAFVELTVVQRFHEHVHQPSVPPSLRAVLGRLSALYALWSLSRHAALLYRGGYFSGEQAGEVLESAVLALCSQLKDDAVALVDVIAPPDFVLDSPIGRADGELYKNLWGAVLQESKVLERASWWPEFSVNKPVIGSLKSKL
UniProt Q9BV23: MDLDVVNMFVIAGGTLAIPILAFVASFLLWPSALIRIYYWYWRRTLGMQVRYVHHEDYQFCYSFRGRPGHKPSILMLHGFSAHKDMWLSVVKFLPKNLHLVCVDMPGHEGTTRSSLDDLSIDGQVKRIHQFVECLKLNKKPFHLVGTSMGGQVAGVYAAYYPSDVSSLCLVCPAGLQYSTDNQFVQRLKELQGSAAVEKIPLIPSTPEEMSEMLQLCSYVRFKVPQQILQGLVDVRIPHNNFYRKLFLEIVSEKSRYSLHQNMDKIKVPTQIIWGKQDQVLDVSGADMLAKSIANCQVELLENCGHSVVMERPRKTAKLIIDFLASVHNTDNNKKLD
UniProt Q04771: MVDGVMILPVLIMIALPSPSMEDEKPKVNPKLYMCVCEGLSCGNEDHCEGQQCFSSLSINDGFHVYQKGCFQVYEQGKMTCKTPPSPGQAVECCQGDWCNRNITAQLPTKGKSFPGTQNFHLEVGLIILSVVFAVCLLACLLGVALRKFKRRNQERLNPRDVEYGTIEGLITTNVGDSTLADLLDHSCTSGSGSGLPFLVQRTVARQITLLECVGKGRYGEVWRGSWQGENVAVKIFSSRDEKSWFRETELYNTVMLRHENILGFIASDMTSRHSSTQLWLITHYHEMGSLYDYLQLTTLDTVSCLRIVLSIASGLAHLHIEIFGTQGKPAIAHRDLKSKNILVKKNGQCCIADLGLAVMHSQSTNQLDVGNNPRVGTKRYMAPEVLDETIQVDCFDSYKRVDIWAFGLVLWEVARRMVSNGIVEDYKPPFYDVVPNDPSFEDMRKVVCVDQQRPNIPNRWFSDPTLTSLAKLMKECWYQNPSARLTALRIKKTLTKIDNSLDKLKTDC

Experiments:
Assay in all cases: log2 fold change, soluble protein after heating vs DMSO (PISA); higher = thermal stabilisation; K562 cells, 10 uM, 30 min; active = over 0.2 and 3.5 SD of the protein, either way, in both replicates (recomputed)
[1] = compound: CN1CCc2c(c3ccccc3n2Cc2ccc(C(=O)NO)cc2)C1 [Tubastatin A]
Method in brief: (§1)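 Quantification of soluble protein used TMTpro 16plex LC-MS/MS, with channel sums equalised. Samples were the supernatant after 21,000xg for 90 min of pooled aliquots from K562 cells (2×10^6 cells/mL) treated with 10 μM compound for 30 min, heated for 3 min over 48°C-58°C, and extracted in PBS with 0.5% NP-40 at 4°C. Values, from duplicates, describe thermal stability against control samples on a log2 fold-change scale.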

[2] = compound: CNC(=O)C1=CC=CC=C1NC2=NC(=NC=C2Cl)NC3=C(C=C(C=C3)N4CCOCC4)OC
Method in brief: as §1

[3] = compound: CNC(=O)c1ccc(Nc2ncc(C(F)(F)F)c(NCc3nccnc3N(C)S(C)(=O)=O)n2)cc1 [defactinib]
Method in brief: as §1

[4] = compound: COC(=O)[C@H](CCSC)NC(=O)C1=C(C=C(C=C1)NC[C@H](CS)N)C2=CC=CC=C2
Method in brief: as §1

[5] = compound: COC1=CC=C(C=C1)CN2C=CC3=C2C=C(C=C3)C(=O)NO
Method in brief: as §1

[6] = compound: COc1cc2nc(-c3cc(F)ccc3O)nc(N[C@@H]3CNC[C@H]3C(C)(C)O)c2cc1OC
Method in brief: as §1

[7] = compound: COc1cc2ncnc(Nc3ccc(F)c(Cl)c3)c2cc1OCCCN1CCOCC1 [gefitinib]
Method in brief: as §1

[8] = compound: CS(=O)(=O)CCNCc1ccc(-c2ccc3ncnc(Nc4ccc(OCc5cccc(F)c5)c(Cl)c4)c3c2)o1 [lapatinib]
Method in brief: as §1

[9] = compound: CS(=O)(=O)N1CCN(Cc2cc3nc(-c4cccc5[nH]ncc45)nc(N4CCOCC4)c3s2)CC1 [pictilisib]
Method in brief: as §1

[10] = compound: COc1cc(Nc2ncc3c(n2)-c2ccc(Cl)cc2C(c2c(F)cccc2OC)=NC3)ccc1C(=O)O [alisertib]
Method in brief: as §1

[11] = compound: COc1cccc2cc(-c3nc([C@H]4CC[C@H](C(=O)O)CC4)n4ncnc(N)c34)[nH]c12
Method in brief: as §1

[12] = compound: CN1CCN(c2nc(C3=C(c4c[nH]c5ccccc45)C(=O)NC3=O)c3ccccc3n2)CC1 [sotrastaurin]
Method in brief: as §1

[13] = compound: CON(C)C(=O)N1N=C(c2cc(F)ccc2F)S[C@@]1(CCCN)c1ccccc1 [filanesib]
Method in brief: as §1

[14] = compound: CNCc1ccc(-c2[nH]c3cc(F)cc4c3c2CCNC4=O)cc1 [rucaparib]
Method in brief: as §1

[15] = compound: COC(=O)N[C@@H](C)CNc1nccc(-c2cn(C(C)C)nc2-c2cc(Cl)cc(NS(C)(=O)=O)c2F)n1 [encorafenib]
Method in brief: as §1

[16] = compound: COc1cc(C(=O)O)ccc1NC(=O)[C@@H]1N[C@@H](CC(C)(C)C)[C@](C#N)(c2ccc(Cl)cc2F)[C@H]1c1cccc(Cl)c1F [idasanutlin]
Method in brief: as §1

[17] = compound: CN1CC[C@H](c2c(O)cc(O)c3c(=O)cc(-c4ccccc4Cl)oc23)[C@H](O)C1 [alvocidib]
Method in brief: as §1

[18] = compound: CO[C@H]1C[C@@H]2CC[C@@H](C)[C@@](O)(O2)C(=O)C(=O)N2CCCC[C@H]2C(=O)O[C@H]([C@H](C)C[C@@H]2CC[C@H](n3cnnn3)[C@H](OC)C2)CC(=O)[C@H](C)/C=C(\C)[C@@H](O)[C@@H](OC)C(=O)[C@H](C)C[C@H](C)/C=C/C=C/C=C/1C [zotarolimus]
Method in brief: as §1

[19] = compound: CN1CCN(CCOc2cc(OC3CCOCC3)c3c(Nc4c(Cl)ccc5c4OCO5)ncnc3c2)CC1 [saracatinib]
Method in brief: as §1

[20] = compound: CNc1nc(-c2ccc3c(N)n[nH]c3c2)cc(N2C[C@@H](C(=O)NC3CCCCC3)CC[C@H]2C)n1
Method in brief: as §1

Measured: log2 fold change

ACTR3B (UniProt Q9P1U1)
active: [5] 0.407
inactive: [1] -0.01 | [2] -0.004 | [3] 0.037 | [4] -0.01 | [6] 0.022 | [7] -0.213 | [8] -0.056 | [9] -0.021

ACTB, A0A2R8YGF8
inactive: [10] 2.67 | [11] 0.088

ACADL (UniProt P28330)
inactive: [12] 0.027 | [13] 0.041

ABCB4 (UniProt P21439)
inactive: [1] 0.059 | [2] -0.115 | [3] 0.044 | [14] 0.052 | [15] -0.082 | [4] 0.102 | [16] -0.103 | [10] 0.048 | [6] 0.061 | [11] 0.014 | [8] -0.099

Random excerpt: two records from the list.
ACTR3B (UniProt Q9P1U1)
active: [5] 0.407
inactive: [1] -0.01 | [2] -0.004 | [3] 0.037 | [4] -0.01 | [6] 0.022 | [7] -0.213 | [8] -0.056 | [9] -0.021

ACTB, A0A2R8YGF8
inactive: [10] 2.67 | [11] 0.088

The results go on:

ACOX1 isoform 3 (UniProt Q15067)
inactive: [1] -0.119 | [3] -0.09 | [4] 0.224 | [5] -0.176

ACCS (UniProt Q96QU6)
inactive: [17] -0.142 | [1] -0.067 | [2] 0.032 | [14] -0.13 | [15] -0.039 | [18] 0.017 | [10] -0.263 | [7] 0.017 | [11] 0.112 | [9] 0.036

ACLY isoform 2 (UniProt P53396)
inactive: [12] 0.031 | [1] 0.018 | [2] -0.025 | [3] -0.041 | [14] -0.004 | [15] 0.022 | [4] -0.019 | [13] -0.009 | [16] 0.094 | [10] 0.058 | [6] -0.013 | [7] -0.057 | [11] 0.231 | [8] -0.151

ACBD7 (UniProt Q8N6N7)
inactive: [19] 0.139 | [14] 0.036 | [20] 0.024 | [15] -0.055 | [6] 0.012 | [8] -0.289 | [9] 0.177

ABCA4 (UniProt P78363)
inactive: [12] -0.249 | [1] 0.246 | [2] -0.152 | [14] 0.006 | [15] 0.006 | [5] 0.394 | [13] 0.076 | [18] 0.031 | [16] -0.02 | [10] -0.071 | [7] 0.014 | [11] -0.007 | [9] 0.135

ACOX3 (UniProt O15254)
inactive: [12] -0.039 | [2] -0.034 | [3] -0.063 | [14] -0.313 | [15] -0.036 | [4] 0.046 | [5] 0.138 | [13] 0.042 | [18] -0.037 | [16] 0.074 | [10] 0.555 | [6] -0.106 | [7] 0.116 | [11] 0.144 | [8] 0.41
active: [1] -0.465

ABCA7 (UniProt Q8IZY2)
inactive: [12] 0.163 | [17] 0.036 | [2] -0.049 | [14] 0.24 | [15] -0.027 | [13] 0.043 | [18] -0.114 | [16] 0.209 | [7] -0.072 | [9] 0.151

ABCA2 isoform 3 (UniProt Q9BZC7)
inactive: [12] 0.006 | [14] 0.022 | [15] -0.293 | [5] -0.187 | [13] 0.244

ABHD6 (UniProt Q9BV23)
inactive: [12] 0.171 | [1] 0.205 | [14] 0.058 | [15] -0.074 | [13] -0.253 | [6] -0.007 | [7] 0.212 | [8] 0.676 | [9] 0.281

ACVR1 (UniProt Q04771)
inactive: [12] -0.081 | [1] -0.042 | [2] 0 | [3] -0.095 | [14] 0.029 | [20] -0.106 | [15] 0.122 | [4] -0.156 | [13] -0.022 | [18] -0.371 | [16] -0.156 | [10] -0.096 | [6] 0.133 | [11] -0.13 | [8] -0.004 | [9] 0.248

ACTG1 (UniProt I3L4N8)
inactive: [19] 0.12 | [2] 0.039 | [14] -0.089 | [20] 0.173 | [15] -0.053 | [10] 1.55 | [7] 0.036 | [11] 0.035
